In patent publication US20030032096A1 (US Dept. of Health and Human Services, published 2003):
These are yes or no findings as the source states them, for the method shown. Some entries that bind do so weakly or less than the wild type.

Protein sequences, listed by entry. Tags and fused reporters are not part of them. Residues count along the entry.
UniProt P49190, residues 25-550: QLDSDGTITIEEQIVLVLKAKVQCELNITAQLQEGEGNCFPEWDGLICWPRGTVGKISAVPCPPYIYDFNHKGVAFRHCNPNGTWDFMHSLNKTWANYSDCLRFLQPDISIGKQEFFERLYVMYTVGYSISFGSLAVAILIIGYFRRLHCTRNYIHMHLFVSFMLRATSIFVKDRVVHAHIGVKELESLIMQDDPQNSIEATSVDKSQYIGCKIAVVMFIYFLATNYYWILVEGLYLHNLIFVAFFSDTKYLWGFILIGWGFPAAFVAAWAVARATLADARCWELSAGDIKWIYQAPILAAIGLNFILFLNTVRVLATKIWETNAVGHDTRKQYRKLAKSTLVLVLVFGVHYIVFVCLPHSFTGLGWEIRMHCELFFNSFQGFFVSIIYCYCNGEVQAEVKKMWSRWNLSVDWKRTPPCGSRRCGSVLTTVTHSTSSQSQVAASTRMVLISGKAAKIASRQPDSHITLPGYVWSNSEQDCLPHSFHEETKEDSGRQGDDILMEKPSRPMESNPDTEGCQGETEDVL
UniProt P12272, residues 43-70: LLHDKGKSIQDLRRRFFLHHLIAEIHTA

Target: human parathyroid hormone type 2 receptor (PTH2 receptor) (human) (UniProt P49190)
Test: displacement of [125I]TIP39, HEK293 membranes, 10 µM GTPγS

binding: binds
Substance: PTHrP(7-34) amide (from UniProt P12272 43-70) (peptide)
